Reference: PMC7140031
No constants are given. Whether binding was seen depends on the method and setting. In cells and extracts the contact can be indirect. Some binding calls cover weakened binding; strength is not graded here.

By UniProt entry, the sequences of proteins in these tests, tags left out. Where a name states a change or a piece, a line headed by the entry shows the natural chain unless it says otherwise. Residues count along the entry.
UniProt P10275: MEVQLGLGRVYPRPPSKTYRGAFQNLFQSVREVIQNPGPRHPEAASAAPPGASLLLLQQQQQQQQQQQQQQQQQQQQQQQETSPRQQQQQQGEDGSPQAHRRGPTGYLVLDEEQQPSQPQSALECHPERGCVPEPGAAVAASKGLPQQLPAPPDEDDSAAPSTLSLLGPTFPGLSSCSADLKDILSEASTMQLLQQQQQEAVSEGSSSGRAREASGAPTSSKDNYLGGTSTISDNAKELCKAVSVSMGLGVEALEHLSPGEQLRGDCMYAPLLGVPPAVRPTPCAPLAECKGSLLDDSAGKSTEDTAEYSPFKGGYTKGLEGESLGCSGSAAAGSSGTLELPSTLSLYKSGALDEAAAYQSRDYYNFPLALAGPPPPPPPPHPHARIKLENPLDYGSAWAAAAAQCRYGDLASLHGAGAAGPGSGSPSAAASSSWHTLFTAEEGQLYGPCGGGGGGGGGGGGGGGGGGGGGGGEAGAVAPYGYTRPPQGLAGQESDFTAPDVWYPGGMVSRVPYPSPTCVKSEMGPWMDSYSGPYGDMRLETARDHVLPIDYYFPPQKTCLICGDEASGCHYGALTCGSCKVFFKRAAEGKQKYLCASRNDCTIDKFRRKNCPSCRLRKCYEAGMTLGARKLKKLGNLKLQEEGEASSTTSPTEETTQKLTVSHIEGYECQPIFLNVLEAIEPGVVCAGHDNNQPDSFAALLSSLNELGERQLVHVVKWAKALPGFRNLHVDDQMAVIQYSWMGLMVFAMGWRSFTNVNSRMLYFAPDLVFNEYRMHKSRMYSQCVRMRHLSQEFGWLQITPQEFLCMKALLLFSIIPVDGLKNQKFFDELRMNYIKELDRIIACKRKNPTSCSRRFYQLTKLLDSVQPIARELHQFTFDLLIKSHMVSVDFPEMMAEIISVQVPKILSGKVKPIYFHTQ
UniProt P19091: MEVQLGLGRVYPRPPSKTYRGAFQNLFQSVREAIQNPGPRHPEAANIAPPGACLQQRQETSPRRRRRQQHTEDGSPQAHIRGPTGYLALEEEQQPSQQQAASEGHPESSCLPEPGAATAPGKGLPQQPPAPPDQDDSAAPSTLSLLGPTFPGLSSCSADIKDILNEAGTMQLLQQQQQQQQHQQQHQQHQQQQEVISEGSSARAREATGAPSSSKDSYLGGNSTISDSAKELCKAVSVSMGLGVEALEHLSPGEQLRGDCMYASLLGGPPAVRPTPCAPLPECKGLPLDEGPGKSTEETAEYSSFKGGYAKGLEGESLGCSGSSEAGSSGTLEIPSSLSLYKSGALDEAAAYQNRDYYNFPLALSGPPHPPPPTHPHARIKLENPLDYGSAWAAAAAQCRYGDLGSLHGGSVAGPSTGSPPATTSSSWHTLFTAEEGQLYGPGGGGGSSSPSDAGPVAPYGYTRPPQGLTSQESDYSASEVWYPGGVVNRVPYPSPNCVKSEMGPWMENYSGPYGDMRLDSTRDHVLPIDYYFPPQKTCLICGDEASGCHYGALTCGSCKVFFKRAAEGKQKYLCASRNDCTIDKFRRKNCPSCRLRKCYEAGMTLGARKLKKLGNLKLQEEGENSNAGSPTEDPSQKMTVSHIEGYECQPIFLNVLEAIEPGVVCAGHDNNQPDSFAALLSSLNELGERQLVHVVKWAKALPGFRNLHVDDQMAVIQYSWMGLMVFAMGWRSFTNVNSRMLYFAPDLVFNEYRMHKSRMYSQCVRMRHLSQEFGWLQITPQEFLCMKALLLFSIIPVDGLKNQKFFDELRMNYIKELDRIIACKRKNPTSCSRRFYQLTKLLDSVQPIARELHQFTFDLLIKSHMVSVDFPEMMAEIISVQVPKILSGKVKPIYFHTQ
UniProt Q13887: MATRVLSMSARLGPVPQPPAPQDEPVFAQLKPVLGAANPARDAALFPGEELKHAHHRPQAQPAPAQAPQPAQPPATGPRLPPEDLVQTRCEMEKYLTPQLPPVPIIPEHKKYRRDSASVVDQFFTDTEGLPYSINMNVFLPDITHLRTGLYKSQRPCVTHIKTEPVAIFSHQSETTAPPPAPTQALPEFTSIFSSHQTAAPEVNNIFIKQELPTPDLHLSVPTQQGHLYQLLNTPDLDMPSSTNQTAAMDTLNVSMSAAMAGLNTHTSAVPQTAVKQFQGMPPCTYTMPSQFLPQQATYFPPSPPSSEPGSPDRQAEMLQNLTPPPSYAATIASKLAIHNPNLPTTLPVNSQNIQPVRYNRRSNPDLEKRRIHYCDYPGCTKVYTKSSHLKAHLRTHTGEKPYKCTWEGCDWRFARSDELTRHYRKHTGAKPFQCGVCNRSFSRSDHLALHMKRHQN
KLF5 fragment, residues 1-200: residues 1-200 of Q13887
UniProt Q9Z0Z7: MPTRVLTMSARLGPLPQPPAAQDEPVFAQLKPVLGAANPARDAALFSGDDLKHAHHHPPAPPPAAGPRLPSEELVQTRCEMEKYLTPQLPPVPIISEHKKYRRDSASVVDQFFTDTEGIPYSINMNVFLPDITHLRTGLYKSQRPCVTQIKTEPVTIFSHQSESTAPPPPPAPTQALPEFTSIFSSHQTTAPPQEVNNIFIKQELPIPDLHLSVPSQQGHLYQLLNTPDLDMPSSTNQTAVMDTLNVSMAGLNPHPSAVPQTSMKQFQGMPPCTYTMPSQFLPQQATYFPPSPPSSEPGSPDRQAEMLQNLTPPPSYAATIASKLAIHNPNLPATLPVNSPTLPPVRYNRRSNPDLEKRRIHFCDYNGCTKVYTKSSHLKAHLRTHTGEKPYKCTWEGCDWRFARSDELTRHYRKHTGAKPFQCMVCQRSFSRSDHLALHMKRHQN

How the values were obtained:
[1] = target: FLAG-tagged AR (androgen receptor) (UniProt P10275); assay: co-IP; HEK293T cells co-transfected, 48 h; lysis in 50 mM Tris pH 7.4, 150 mM NaCl, 2 mM EDTA, 0.8% NP-40, 0.2% Triton X-100, 3% glycerol; anti-FLAG-agarose beads, 4 °C, 2 h; western blot; in one panel cells treated with 10 µM enzalutamide for 24 h (reduced AR in the KLF5 precipitate)
[2] = target: endogenous AR of C4-2B cells (human (endogenous in C4-2B)) (UniProt P10275); assay: co-IP; endogenous proteins, C4-2B cell lysate; KLF5 antibody (self-made) or AR antibody, overnight at 4 °C, magnetic Dynabeads 2 h; normal IgG as negative control; western blot
[3] = target: endogenous Ar of mouse prostate (mouse (endogenous in mouse prostate)) (UniProt P19091); assay: co-IP; endogenous proteins, mouse prostate lysate; KLF5 antibody or AR antibody, overnight at 4 °C, magnetic Dynabeads 2 h; western blot
[4] = target: FLAG-tagged KLF5 (Krüppel-like factor 5) (UniProt Q13887); assay: co-IP; HEK293T cells co-transfected, 48 h; lysis in 50 mM Tris pH 7.4, 150 mM NaCl, 2 mM EDTA, 0.8% NP-40, 0.2% Triton X-100, 3% glycerol; anti-FLAG-agarose beads, 4 °C, 2 h; western blot; in one panel cells treated with 10 µM enzalutamide for 24 h (reduced AR in the KLF5 precipitate)
[5] = target: KLF5 fragment, residues 1-200 (UniProt Q13887); assay: as above
[6] = target: endogenous Klf5 of mouse prostate (mouse (endogenous in mouse prostate)) (UniProt Q9Z0Z7); assay: co-IP; endogenous proteins, mouse prostate lysate; KLF5 antibody or AR antibody, overnight at 4 °C, magnetic Dynabeads 2 h; western blot
[7] = target: endogenous KLF5 of C4-2B cells (human (endogenous in C4-2B)) (UniProt Q13887); assay: co-IP; endogenous proteins, C4-2B cell lysate; KLF5 antibody (self-made) or AR antibody, overnight at 4 °C, magnetic Dynabeads 2 h; normal IgG as negative control; western blot

Substance: HA-tagged KLF5 (Krüppel-like factor 5) (from UniProt Q13887 1-457)
- binding [1]: binds

Substance: endogenous KLF5 of C4-2B cells (from UniProt Q13887 1-457)
- binding [2]: binds

Substance: endogenous Klf5 of mouse prostate (from UniProt Q9Z0Z7 1-446)
- binding [3]: binds

Substance: androgen receptor expressed from pSG5-AR (from UniProt P10275 1-920)
- binding [4]: binds
- binding [5]: binds

Substance: endogenous Ar of mouse prostate (from UniProt P19091 1-899)
- binding [6]: binds

Substance: endogenous AR of C4-2B cells (from UniProt P10275 1-920)
- binding [7]: binds
